Source: paper PMC8041195

Molecular target: T1, Vps26 (S. pombe) (UniProt Q10243)
T1 sequence: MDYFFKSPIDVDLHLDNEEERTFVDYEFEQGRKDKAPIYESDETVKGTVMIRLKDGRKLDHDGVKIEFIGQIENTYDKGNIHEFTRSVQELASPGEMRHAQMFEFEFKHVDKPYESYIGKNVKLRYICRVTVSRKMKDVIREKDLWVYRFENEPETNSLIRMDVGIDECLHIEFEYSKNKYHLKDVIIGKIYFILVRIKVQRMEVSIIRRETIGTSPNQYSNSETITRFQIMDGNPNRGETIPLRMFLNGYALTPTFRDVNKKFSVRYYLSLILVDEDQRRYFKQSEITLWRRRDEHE
Assay: two-hybrid; pGADT7 and pGBKT7 plasmids in S. cerevisiae AH109; growth on YNB without histidine, 30°C, four days

binding: no binding
Substance: Stx8* (Stx8 lacking the TM helix) (S. pombe) (domain or fragment)

These are yes or no findings as the source states them, for the method shown.
